Laboratory results as given in the supplement of paper PMC10849652.
The other results are listed elsewhere or left out.

Amino acid sequences for entries named in this document (tags omitted). A change or cut given only in a name is not applied to a line headed by its entry.
UniProt Q15651: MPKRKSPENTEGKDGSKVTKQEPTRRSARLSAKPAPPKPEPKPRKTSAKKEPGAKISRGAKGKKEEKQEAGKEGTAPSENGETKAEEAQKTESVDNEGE
UniProt P34931, whole entry, looked up: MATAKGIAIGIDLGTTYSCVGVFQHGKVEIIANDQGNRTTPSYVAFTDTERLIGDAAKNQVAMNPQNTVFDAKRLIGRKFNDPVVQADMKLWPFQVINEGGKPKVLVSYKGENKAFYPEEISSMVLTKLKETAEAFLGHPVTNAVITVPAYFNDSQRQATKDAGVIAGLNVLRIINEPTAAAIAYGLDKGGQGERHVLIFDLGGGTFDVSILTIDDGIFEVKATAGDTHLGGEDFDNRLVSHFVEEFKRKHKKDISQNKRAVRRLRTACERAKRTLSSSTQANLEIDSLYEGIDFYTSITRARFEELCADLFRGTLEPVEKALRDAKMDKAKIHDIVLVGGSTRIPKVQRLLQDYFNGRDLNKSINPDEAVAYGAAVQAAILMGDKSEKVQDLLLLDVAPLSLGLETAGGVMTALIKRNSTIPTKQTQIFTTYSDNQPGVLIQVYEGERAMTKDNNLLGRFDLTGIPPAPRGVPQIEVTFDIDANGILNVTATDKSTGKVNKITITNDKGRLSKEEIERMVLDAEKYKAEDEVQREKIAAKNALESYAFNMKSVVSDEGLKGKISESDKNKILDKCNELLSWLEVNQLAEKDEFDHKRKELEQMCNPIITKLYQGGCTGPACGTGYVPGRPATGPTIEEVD
UniProt Q8WVV9: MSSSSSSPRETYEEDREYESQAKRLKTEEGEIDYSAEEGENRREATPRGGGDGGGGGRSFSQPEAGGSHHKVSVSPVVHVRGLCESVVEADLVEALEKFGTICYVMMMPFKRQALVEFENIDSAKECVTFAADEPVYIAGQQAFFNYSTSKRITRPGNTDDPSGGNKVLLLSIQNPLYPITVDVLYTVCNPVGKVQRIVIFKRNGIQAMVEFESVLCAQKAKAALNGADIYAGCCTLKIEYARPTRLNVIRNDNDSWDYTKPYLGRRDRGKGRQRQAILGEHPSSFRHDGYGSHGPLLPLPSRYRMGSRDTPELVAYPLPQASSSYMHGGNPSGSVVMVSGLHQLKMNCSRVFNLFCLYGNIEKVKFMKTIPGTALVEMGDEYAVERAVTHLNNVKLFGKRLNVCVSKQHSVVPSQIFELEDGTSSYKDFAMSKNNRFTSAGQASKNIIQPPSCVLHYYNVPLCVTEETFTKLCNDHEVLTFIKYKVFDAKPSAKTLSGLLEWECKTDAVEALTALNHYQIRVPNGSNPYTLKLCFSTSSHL
UniProt Q92598: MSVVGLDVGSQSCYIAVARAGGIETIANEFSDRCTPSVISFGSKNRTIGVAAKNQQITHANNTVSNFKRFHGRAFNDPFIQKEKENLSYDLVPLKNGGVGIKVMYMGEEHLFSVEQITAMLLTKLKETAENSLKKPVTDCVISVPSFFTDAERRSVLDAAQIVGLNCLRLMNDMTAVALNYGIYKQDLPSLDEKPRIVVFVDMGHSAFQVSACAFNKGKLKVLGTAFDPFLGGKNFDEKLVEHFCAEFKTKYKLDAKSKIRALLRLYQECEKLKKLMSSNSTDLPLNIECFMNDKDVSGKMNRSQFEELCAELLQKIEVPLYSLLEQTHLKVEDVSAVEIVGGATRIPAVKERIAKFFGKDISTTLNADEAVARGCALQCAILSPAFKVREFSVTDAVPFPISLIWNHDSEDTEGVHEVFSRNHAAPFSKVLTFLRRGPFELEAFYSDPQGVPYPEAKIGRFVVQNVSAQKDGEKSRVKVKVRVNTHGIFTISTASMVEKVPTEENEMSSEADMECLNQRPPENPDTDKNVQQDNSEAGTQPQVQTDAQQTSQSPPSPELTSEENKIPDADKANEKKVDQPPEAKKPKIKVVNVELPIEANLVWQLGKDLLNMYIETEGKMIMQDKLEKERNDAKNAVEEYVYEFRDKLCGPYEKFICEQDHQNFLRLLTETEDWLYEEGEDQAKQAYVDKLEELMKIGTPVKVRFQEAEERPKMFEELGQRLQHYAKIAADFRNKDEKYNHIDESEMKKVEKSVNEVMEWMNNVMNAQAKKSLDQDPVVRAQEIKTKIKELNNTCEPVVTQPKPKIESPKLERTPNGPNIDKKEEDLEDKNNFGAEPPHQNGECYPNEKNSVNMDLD
UniProt P08397: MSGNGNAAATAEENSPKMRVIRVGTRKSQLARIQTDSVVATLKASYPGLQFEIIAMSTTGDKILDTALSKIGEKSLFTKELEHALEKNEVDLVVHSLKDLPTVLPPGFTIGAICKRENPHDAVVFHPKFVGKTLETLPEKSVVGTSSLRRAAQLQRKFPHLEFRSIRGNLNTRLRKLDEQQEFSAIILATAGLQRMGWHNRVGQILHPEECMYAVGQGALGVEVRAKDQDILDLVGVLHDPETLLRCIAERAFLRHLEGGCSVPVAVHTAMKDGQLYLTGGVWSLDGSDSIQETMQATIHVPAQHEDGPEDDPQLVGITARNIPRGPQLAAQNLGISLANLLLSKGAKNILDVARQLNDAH
UniProt O14979: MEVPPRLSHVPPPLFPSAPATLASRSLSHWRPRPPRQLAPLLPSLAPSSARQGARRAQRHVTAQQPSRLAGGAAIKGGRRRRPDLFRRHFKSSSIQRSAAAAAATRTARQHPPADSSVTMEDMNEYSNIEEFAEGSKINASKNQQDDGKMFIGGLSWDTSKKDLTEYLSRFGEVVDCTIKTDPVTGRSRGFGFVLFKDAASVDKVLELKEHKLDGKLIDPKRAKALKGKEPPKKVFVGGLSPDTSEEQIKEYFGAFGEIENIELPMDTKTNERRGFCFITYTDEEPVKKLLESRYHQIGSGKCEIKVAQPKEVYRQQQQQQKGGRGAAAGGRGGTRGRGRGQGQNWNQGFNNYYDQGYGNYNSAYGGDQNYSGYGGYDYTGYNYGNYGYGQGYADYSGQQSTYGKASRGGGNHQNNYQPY
UniProt Q8NBQ5: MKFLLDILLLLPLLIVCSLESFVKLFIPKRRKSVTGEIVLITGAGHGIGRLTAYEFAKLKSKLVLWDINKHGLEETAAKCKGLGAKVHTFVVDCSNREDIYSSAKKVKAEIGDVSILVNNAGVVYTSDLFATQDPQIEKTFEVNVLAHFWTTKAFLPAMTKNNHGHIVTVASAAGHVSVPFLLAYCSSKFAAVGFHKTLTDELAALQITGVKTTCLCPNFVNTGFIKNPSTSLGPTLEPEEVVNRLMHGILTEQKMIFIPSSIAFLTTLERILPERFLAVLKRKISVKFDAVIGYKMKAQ
UniProt P00492: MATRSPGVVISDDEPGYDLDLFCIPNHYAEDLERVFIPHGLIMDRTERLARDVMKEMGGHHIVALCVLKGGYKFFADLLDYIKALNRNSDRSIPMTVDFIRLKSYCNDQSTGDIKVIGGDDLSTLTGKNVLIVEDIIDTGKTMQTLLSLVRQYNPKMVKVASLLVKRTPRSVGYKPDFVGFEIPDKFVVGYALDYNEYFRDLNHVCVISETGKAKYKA
UniProt P09651: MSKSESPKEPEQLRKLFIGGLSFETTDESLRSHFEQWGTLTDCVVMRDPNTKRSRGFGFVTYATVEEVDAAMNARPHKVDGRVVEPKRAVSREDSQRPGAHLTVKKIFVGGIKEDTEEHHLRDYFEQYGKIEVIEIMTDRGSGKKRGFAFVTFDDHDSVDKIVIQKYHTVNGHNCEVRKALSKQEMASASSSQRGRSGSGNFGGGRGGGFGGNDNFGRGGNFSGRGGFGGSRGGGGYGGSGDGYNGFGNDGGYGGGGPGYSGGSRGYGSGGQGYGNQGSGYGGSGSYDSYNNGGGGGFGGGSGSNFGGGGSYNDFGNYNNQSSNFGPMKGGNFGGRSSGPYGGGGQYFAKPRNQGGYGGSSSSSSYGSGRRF
UniProt P13598: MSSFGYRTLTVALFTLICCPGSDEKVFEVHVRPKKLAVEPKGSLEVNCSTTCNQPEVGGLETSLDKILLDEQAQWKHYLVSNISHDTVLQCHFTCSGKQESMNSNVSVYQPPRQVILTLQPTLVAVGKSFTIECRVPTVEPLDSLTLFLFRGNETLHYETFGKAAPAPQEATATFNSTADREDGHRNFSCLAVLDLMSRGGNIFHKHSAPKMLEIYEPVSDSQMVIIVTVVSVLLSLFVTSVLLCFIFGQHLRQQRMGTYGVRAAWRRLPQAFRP
UniProt P56937: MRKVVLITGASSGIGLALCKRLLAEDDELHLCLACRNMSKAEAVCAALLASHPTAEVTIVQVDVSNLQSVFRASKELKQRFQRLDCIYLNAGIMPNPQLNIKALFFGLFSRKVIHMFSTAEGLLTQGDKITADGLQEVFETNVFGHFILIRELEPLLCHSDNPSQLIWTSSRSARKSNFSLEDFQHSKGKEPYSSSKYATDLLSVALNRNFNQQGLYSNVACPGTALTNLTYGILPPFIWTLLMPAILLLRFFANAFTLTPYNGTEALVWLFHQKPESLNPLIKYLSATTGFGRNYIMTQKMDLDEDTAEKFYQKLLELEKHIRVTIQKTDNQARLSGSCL
UniProt Q9BTY7: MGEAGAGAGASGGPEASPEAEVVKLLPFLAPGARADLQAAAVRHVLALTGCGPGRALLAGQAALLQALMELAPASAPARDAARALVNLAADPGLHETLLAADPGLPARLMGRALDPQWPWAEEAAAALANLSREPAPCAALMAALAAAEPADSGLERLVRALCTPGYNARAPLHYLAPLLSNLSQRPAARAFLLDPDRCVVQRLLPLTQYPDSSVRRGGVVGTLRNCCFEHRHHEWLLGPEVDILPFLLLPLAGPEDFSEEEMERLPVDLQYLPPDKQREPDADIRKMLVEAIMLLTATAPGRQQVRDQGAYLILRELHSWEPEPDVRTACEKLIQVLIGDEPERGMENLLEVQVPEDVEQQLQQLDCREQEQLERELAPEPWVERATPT
UniProt O95757: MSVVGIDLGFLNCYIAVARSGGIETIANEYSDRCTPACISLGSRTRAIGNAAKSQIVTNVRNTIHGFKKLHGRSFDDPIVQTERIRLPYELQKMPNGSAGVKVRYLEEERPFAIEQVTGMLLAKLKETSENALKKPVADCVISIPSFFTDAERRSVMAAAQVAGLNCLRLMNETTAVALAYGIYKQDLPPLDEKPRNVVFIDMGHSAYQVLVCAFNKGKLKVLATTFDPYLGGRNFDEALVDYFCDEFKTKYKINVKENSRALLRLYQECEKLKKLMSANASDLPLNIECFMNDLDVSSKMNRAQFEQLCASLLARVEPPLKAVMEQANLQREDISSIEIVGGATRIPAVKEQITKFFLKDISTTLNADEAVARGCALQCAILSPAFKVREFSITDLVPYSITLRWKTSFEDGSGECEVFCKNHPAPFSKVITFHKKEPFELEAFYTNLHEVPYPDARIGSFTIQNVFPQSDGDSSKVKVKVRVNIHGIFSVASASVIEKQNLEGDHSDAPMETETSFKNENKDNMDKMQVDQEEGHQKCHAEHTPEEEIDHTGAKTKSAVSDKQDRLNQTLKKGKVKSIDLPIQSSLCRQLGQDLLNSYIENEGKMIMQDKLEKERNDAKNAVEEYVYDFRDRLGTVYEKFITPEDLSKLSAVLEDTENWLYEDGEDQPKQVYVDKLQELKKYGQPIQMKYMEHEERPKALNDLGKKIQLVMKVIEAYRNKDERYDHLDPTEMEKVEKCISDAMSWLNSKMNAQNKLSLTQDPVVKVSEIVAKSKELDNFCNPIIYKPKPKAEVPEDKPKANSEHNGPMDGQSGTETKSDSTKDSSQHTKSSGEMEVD
UniProt P52272: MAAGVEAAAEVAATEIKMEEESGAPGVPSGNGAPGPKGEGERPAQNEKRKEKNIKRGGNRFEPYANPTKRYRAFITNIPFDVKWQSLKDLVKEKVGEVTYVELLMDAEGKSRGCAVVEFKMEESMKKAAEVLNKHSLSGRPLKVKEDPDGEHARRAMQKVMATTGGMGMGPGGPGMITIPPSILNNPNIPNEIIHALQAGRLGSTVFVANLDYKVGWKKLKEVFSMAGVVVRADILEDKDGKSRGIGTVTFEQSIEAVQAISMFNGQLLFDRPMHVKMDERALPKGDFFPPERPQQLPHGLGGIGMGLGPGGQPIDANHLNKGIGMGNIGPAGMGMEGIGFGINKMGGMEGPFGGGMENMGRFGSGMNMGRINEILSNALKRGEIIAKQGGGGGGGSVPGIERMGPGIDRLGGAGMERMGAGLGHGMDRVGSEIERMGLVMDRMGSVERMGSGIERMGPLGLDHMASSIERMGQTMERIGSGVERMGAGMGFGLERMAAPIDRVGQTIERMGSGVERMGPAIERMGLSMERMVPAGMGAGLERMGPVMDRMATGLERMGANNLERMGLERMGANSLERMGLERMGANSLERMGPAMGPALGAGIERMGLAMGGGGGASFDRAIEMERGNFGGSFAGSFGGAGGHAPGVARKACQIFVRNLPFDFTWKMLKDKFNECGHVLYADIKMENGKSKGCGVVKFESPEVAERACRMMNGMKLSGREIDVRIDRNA
UniProt Q9Y547: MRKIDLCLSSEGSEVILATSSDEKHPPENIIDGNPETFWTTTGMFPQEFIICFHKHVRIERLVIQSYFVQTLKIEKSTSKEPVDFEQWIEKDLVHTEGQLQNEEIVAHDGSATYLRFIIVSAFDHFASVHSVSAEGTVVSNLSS

Columns and labels:
Experiment in all cases: log2 fold change, soluble protein after heating vs DMSO (PISA); higher = thermal stabilisation; K562 cells, 10 uM, 30 min; active = over 0.2 and 3.5 SD of the protein, either way, in both replicates (recomputed)
[1] = compound: CS(=O)(=O)c1ccc(-c2cnc(N)c(C(=O)Nc3ccccc3)n2)cc1
Outline: (§1)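 Values are thermal stability changes relative to control samples and are taken from duplicates. They are stated as log2 fold changes. Before quantification by TMTpro 16plex LC-MS/MS with equalised channel sums, K562 cells at 2×10^6 cells/mL were treated with 10 μM compound for 30 min, heated in aliquots for 3 min across 48°C-58°C, pooled, extracted in PBS with 0.5% NP-40 at 4°C, and centrifuged at 21,000xg for 90 min to give the soluble supernatant.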

crizotinib = compound: C[C@@H](Oc1cc(-c2cnn(C3CCNCC3)c2)cnc1N)c1c(Cl)ccc(F)c1Cl [crizotinib]
Outline: as §1

[2] = compound: C[C@@H]1COCCN1C2=NC(=NC(=C2)C3(CC3)S(=O)(=O)C)C4=C5C=CNC5=CC=C4
Outline: as §1

[3] = compound: C[C@H](C1=CC=C(C=C1)C(=O)NC2=C3C=CNC3=NC=C2)N
Outline: as §1

duvelisib = compound: C[C@H](Nc1ncnc2nc[nH]c12)c1cc2cccc(Cl)c2c(=O)n1-c1ccccc1 [duvelisib]
Outline: as §1

gandotinib = compound: Cc1cc(Nc2cc(CN3CCOCC3)c3nc(C)c(Cc4ccc(Cl)cc4F)n3n2)n[nH]1 [gandotinib]
Outline: as §1

tozasertib = compound: Cc1cc(Nc2cc(N3CCN(C)CC3)nc(Sc3ccc(NC(=O)C4CC4)cc3)n2)n[nH]1 [tozasertib]
Outline: as §1

[4] = compound: Cc1cc(SCc2sc(-c3ccc(C(F)(F)F)cc3)nc2C)ccc1OCC(=O)O
Outline: as §1

doramapimod = compound: Cc1ccc(-n2nc(C(C)(C)C)cc2NC(=O)Nc2ccc(OCCN3CCOCC3)c3ccccc23)cc1 [doramapimod]
Outline: as §1

ispinesib = compound: Cc1ccc(C(=O)N(CCCN)[C@@H](c2nc3cc(Cl)ccc3c(=O)n2Cc2ccccc2)C(C)C)cc1 [ispinesib]
Outline: as §1

bafetinib = compound: Cc1ccc(NC(=O)c2ccc(CN3CC[C@H](N(C)C)C3)c(C(F)(F)F)c2)cc1Nc1nccc(-c2cncnc2)n1 [bafetinib]
Outline: as §1

[5] = compound: Cc1cccc(CC(=O)N2CCc3c2ccc(-c2cn(C)c4ncnc(N)c24)c3F)n1
Outline: as §1

nilotinib = compound: Cc1cn(-c2cc(NC(=O)c3ccc(C)c(Nc4nccc(-c5cccnc5)n4)c3)cc(C(F)(F)F)c2)cn1 [nilotinib]
Outline: as §1

[6] = compound: Cc1nc(Nc2n[nH]c3c2CN(C(=O)N[C@H](CN(C)C)c2ccccc2)C3(C)C)c2sccc2n1
Outline: as §1

dasatinib = compound: Cc1nc(Nc2ncc(C(=O)Nc3c(C)cccc3Cl)s2)cc(N2CCN(CCO)CC2)n1 [dasatinib]
Outline: as §1

[7] = compound: Cc1ncc(-c2ccnc(Nc3ccc(S(C)(=O)=O)cc3)n2)n1C(C)C
Outline: as §1

[8] = compound: Cn1cc(-c2ccc3c(c2)CCN3C(=O)Cc2cccc(C(F)(F)F)c2)c2c(N)ncnc21
Outline: as §1

[9] = compound: Cn1cc(-c2ccc3nnc(C(F)(F)c4ccc5ncccc5c4)n3n2)cn1
Outline: as §1

tipifarnib = compound: Cn1cncc1[C@@](N)(c1ccc(Cl)cc1)c1ccc2c(c1)c(-c1cccc(Cl)c1)cc(=O)n2C [tipifarnib]
Outline: as §1

mubritinib = compound: FC(F)(F)c1ccc(/C=C/c2nc(COc3ccc(CCCCn4ccnn4)cc3)co2)cc1 [mubritinib]
Outline: as §1

Measured: log2 fold change

HMGN3 (UniProt Q15651)
inactive: [1] 0 | crizotinib -0.095 | [2] -0.222 | [3] -0.192 | duvelisib -0.128 | gandotinib 0.065 | tozasertib 0.069 | [4] -0.012 | doramapimod -0.006 | ispinesib -0.038 | bafetinib -0.087 | [5] -0.017 | nilotinib 0.107 | [6] 0.011 | dasatinib 0.041 | [7] 0.062 | [8] -0.139 | [9] -0.2 | tipifarnib 0.084 | mubritinib -0.107

HSPA1L (UniProt P34931)
inactive: [1] 0.131 | crizotinib 0.053 | [2] -0.001 | [3] 0.188 | duvelisib 0.054 | gandotinib -0.281 | tozasertib -0.124 | [4] -0.155 | doramapimod 0.005 | ispinesib 0.019 | bafetinib -0.073 | [5] 0.02 | nilotinib 0.1 | [6] 0.078 | dasatinib 0.034 | [7] 0.058 | [8] 0.244 | [9] 0.063 | tipifarnib 0.001 | mubritinib -0.101

HNRNPLL (UniProt Q8WVV9)
inactive: [1] -0.021 | crizotinib 0.068 | [2] 0.13 | [3] 0.004 | duvelisib 0.021 | gandotinib 0.077 | tozasertib 0 | [4] 0.224 | doramapimod -0.068 | ispinesib 0.033 | bafetinib -0.035 | [5] 0.069 | nilotinib -0.028 | [6] -0.32 | dasatinib -0.038 | [7] -0.092 | [8] 0.059 | [9] 0.057 | tipifarnib -0.012 | mubritinib 0.028

HSPH1 (UniProt Q92598)
inactive: [1] 0.026 | crizotinib 0.04 | [2] -0.003 | [3] -0.036 | duvelisib 0.01 | gandotinib -0.079 | tozasertib 0.041 | [4] 0.037 | doramapimod -0.048 | ispinesib 0.043 | bafetinib -0.053 | [5] 0.018 | nilotinib -0.041 | [6] -0.023 | dasatinib -0.078 | [7] 0.022 | [8] -0.011 | [9] -0.024 | tipifarnib -0.039 | mubritinib 0.003

HMBS (UniProt P08397)
inactive: [1] -0.01 | crizotinib 0.039 | [2] -0.029 | [3] -0.068 | duvelisib -0.01 | gandotinib 0.028 | tozasertib -0.024 | [4] -0.018 | doramapimod -0.026 | ispinesib 0.06 | bafetinib 0 | [5] -0.018 | nilotinib 0.028 | [6] 0.017 | dasatinib 0.049 | [7] 0.003 | [8] 0.011 | [9] 0.02 | tipifarnib -0.021 | mubritinib 0.018

HNRNPDL (UniProt O14979)
inactive: [1] -0.123 | crizotinib 0.041 | [2] -0.318 | [3] 0.25 | duvelisib -0.088 | gandotinib 0.159 | tozasertib -0.046 | [4] -0.001 | doramapimod 0.025 | ispinesib -0.107 | bafetinib 0.02 | [5] -0.04 | nilotinib -0.009 | [6] 0.141 | dasatinib 0.215 | [7] 0.136 | [8] -0.143 | [9] -0.097 | tipifarnib 0.087 | mubritinib -0.087

HSD17B11 (UniProt Q8NBQ5)
inactive: [1] 0.007 | crizotinib 0.061 | [2] 0.002 | [3] -0.115 | duvelisib 0.047 | gandotinib 0.056 | tozasertib -0.02 | [4] -0.004 | doramapimod 0.004 | ispinesib 0.128 | bafetinib 0.044 | [5] 0.026 | nilotinib 0.005 | [6] -0.004 | dasatinib 0 | [7] 0.009 | [8] 0.07 | [9] 0.016 | tipifarnib -0.004 | mubritinib 0.127

HPRT1 (UniProt P00492)
inactive: [1] -0.033 | crizotinib -0.024 | [2] 0.009 | [3] -0.118 | duvelisib 0.004 | gandotinib 0.034 | tozasertib -0.001 | [4] -0.033 | doramapimod -0.053 | ispinesib 0.061 | bafetinib -0.035 | [5] 0.024 | nilotinib 0.018 | [6] 0.023 | dasatinib 0 | [7] -0.007 | [8] 0.016 | [9] -0.008 | tipifarnib -0.039 | mubritinib 0.011

HNRNPA1 (UniProt P09651)
inactive: [1] -0.091 | crizotinib 0.033 | [2] -0.324 | [3] 0.295 | duvelisib -0.07 | gandotinib 0.184 | tozasertib 0.021 | [4] 0.055 | doramapimod 0.178 | ispinesib -0.142 | bafetinib 0.159 | [5] 0.01 | nilotinib -0.053 | [6] 0.106 | dasatinib 0.233 | [7] 0.16 | [8] -0.277 | [9] -0.133 | tipifarnib 0.083 | mubritinib -0.208

3 successive records from above, quoted:
HNRNPDL (UniProt O14979)
inactive: [1] -0.123 | crizotinib 0.041 | [2] -0.318 | [3] 0.25 | duvelisib -0.088 | gandotinib 0.159 | tozasertib -0.046 | [4] -0.001 | doramapimod 0.025 | ispinesib -0.107 | bafetinib 0.02 | [5] -0.04 | nilotinib -0.009 | [6] 0.141 | dasatinib 0.215 | [7] 0.136 | [8] -0.143 | [9] -0.097 | tipifarnib 0.087 | mubritinib -0.087

HSD17B11 (UniProt Q8NBQ5)
inactive: [1] 0.007 | crizotinib 0.061 | [2] 0.002 | [3] -0.115 | duvelisib 0.047 | gandotinib 0.056 | tozasertib -0.02 | [4] -0.004 | doramapimod 0.004 | ispinesib 0.128 | bafetinib 0.044 | [5] 0.026 | nilotinib 0.005 | [6] -0.004 | dasatinib 0 | [7] 0.009 | [8] 0.07 | [9] 0.016 | tipifarnib -0.004 | mubritinib 0.127

HPRT1 (UniProt P00492)
inactive: [1] -0.033 | crizotinib -0.024 | [2] 0.009 | [3] -0.118 | duvelisib 0.004 | gandotinib 0.034 | tozasertib -0.001 | [4] -0.033 | doramapimod -0.053 | ispinesib 0.061 | bafetinib -0.035 | [5] 0.024 | nilotinib 0.018 | [6] 0.023 | dasatinib 0 | [7] -0.007 | [8] 0.016 | [9] -0.008 | tipifarnib -0.039 | mubritinib 0.011

Further records.

ICAM2 (UniProt P13598)
inactive: [1] 0.033 | crizotinib 0.051 | [2] 0.013 | [3] -0.183 | duvelisib 0.018 | gandotinib 0.017 | tozasertib -0.023 | [4] -0.072 | doramapimod 0.005 | ispinesib -0.091 | bafetinib 0.076 | [5] 0.007 | nilotinib 0.113 | [6] -0.043 | dasatinib -0.071 | [7] 0.04 | [8] 0.087 | [9] -0.026 | tipifarnib -0.027 | mubritinib 0.011

HK1 isoform 2 (UniProt P19367)
inactive: [1] -0.031 | crizotinib 0.033 | [2] 0.041 | [3] -0.047 | duvelisib 0.021 | gandotinib -0.096 | tozasertib -0.019 | [4] -0.032 | doramapimod -0.016 | ispinesib 0.035 | bafetinib -0.124 | [5] 0.008 | nilotinib -0.179 | [6] -0.008 | dasatinib -0.013 | [7] -0.001 | [8] 0.002 | [9] 0.027 | tipifarnib 0.025 | mubritinib 0.044

HSD17B7 (UniProt P56937)
inactive: [1] 0.009 | crizotinib -0.092 | [2] 0.064 | [3] -0.072 | duvelisib 0.043 | gandotinib -0.08 | tozasertib -0.076 | [4] 0 | doramapimod -0.086 | ispinesib -0.085 | bafetinib -0.039 | [5] 0.02 | nilotinib -0.025 | [6] -0.038 | dasatinib -0.064 | [7] 0.013 | [8] 0.021 | [9] -0.008 | tipifarnib -0.066 | mubritinib -0.041

HGH1 (UniProt Q9BTY7)
inactive: [1] 0.012 | crizotinib 0.107 | [2] 0 | [3] 0.128 | duvelisib 0.062 | gandotinib -0.007 | tozasertib 0.017 | [4] 0.137 | doramapimod 0.009 | ispinesib -0.197 | bafetinib 0.043 | [5] 0.038 | nilotinib -0.013 | [6] -0.064 | dasatinib -0.042 | [7] -0.006 | [8] -0.037 | [9] -0.089 | tipifarnib -0.003 | mubritinib -0.005

HSPA4L (UniProt O95757)
inactive: [1] 0.011 | crizotinib 0.067 | [2] 0.057 | [3] -0.041 | duvelisib 0.005 | gandotinib 0.001 | tozasertib 0.028 | [4] -0.02 | doramapimod -0.027 | ispinesib 0.037 | bafetinib -0.034 | [5] 0.02 | nilotinib -0.045 | [6] -0.006 | dasatinib 0.004 | [7] -0.007 | [8] 0.016 | [9] -0.017 | tipifarnib -0.005 | mubritinib 0

HNRNPM (UniProt P52272)
inactive: [1] -0.062 | crizotinib -0.009 | [2] -0.288 | [3] 0.356 | duvelisib -0.076 | gandotinib 0.116 | tozasertib 0.088 | [4] 0.086 | doramapimod 0.105 | ispinesib -0.219 | bafetinib 0.14 | [5] -0.057 | nilotinib -0.017 | [6] -0.168 | dasatinib 0.022 | [7] -0.027 | [8] -0.221 | [9] -0.122 | tipifarnib 0.064 | mubritinib -0.363

HSPB11 (UniProt Q9Y547)
inactive: [1] 0.024 | crizotinib 0.007 | [2] 0.025 | [3] -0.022 | duvelisib 0.128 | gandotinib -0.243 | tozasertib 0.017 | [4] 0.048 | doramapimod 0.004 | ispinesib 0.111 | bafetinib 0.02 | [5] 0.004 | nilotinib -0.003 | [6] 0.066 | dasatinib -0.046 | [7] 0.035 | [8] 0.068 | [9] -0.094 | tipifarnib -0.051 | mubritinib 0.039
